The exact form of at least one protein or probe is not confirmed. For part of these data: Tags and fusion partners may be left off the protein sequences shown.
Columns and labels:
Experiment in all cases: human ORF protein microarray
[1] = target: T1, CCNK (Homo sapiens) (UniProt O75909); settings: 5' phosphate; Domain array: 20 mM Tris-HCl pH 7.4, 200 mM KCl, 0.2 mM EDTA, 0.05% NP40, 2 ug/ul heparin, overnight 4 C. ORF array: PBS pH 7.0 with RNase inhibitor, 100 ng RNA, 1 h.; recombinant protein; protein details: N-terminal GST-6xHis; label: internal DY647 at G18; letters put together from the description
T1 sequence (looked up, limits assumed): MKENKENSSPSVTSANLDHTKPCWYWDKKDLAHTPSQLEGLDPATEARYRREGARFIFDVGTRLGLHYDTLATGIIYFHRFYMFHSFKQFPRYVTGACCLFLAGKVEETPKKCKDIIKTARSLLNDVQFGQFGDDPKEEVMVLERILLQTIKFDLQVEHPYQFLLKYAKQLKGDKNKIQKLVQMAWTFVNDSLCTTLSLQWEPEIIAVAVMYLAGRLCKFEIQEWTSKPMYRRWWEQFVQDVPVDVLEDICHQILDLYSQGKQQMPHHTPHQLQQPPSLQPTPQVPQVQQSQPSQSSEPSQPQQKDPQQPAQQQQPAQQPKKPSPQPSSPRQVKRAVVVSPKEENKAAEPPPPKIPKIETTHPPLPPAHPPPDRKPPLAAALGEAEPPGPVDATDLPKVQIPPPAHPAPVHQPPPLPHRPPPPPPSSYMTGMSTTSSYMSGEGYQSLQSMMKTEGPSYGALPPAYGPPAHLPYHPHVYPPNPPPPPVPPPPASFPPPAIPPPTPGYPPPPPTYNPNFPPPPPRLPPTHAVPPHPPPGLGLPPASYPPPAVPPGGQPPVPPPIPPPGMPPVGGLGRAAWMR

The chains behind the UniProt entries cited, without tags or fusion partners. Where a name states a change or a piece, a line headed by the entry shows the natural chain unless it says otherwise.
UniProt Q92993: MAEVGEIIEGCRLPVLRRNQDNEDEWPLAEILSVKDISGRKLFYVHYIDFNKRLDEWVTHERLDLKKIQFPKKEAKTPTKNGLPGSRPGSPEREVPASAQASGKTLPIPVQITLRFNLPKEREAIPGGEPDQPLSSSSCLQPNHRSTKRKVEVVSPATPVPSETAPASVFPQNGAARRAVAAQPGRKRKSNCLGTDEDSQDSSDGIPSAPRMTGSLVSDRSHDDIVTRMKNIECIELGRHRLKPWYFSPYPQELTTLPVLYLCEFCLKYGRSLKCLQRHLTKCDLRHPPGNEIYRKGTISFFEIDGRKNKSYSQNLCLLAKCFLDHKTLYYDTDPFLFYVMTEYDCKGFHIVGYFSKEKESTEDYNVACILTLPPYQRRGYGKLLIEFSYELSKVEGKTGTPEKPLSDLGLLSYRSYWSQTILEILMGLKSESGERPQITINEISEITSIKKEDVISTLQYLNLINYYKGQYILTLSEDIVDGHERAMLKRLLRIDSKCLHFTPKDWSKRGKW
UniProt Q5T7N2: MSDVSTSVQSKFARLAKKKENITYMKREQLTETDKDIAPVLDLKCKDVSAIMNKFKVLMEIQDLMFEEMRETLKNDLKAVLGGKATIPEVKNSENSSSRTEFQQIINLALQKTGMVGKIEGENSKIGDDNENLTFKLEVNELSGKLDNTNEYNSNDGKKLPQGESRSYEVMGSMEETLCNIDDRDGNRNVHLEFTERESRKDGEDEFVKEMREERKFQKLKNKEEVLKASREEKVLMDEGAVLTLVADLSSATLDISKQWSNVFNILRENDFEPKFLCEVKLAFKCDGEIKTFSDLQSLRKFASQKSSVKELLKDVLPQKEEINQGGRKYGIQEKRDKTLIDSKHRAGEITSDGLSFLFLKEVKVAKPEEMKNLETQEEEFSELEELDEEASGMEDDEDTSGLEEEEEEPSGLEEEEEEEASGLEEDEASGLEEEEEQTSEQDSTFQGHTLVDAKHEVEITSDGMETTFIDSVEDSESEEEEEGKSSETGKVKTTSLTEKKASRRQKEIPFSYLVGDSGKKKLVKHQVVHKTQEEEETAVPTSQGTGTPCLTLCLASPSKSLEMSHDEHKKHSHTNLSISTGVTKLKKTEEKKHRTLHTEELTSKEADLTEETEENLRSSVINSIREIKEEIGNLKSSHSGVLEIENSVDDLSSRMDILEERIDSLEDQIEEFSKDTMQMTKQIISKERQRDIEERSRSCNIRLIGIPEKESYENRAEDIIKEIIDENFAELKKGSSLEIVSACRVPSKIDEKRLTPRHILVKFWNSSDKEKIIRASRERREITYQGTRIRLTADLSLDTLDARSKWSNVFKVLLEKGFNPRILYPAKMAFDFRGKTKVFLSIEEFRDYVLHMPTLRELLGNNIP
UniProt Q9NY87: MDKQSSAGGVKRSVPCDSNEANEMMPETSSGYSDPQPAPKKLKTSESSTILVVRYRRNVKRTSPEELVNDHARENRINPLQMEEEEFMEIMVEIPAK
UniProt Q9NYA1, whole entry: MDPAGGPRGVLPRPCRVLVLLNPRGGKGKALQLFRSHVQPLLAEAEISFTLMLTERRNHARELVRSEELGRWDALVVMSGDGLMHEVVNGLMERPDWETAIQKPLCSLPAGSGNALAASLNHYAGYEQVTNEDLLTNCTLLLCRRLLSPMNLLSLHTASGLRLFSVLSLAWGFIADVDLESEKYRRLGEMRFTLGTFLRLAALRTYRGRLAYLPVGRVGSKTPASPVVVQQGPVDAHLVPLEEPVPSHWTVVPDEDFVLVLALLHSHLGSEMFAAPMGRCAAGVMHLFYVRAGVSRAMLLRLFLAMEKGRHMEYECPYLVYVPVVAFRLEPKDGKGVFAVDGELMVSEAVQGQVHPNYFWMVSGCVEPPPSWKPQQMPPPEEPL
UniProt Q9UBK9, whole entry: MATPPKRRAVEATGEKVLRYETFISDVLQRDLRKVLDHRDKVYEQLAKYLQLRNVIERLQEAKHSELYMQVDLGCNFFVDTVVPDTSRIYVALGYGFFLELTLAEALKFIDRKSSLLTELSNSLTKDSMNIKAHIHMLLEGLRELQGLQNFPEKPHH
UniProt Q9NZ45: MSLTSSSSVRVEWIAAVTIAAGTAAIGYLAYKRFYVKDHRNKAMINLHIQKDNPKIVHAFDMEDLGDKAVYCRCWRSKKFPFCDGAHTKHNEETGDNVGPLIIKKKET
UniProt P57789: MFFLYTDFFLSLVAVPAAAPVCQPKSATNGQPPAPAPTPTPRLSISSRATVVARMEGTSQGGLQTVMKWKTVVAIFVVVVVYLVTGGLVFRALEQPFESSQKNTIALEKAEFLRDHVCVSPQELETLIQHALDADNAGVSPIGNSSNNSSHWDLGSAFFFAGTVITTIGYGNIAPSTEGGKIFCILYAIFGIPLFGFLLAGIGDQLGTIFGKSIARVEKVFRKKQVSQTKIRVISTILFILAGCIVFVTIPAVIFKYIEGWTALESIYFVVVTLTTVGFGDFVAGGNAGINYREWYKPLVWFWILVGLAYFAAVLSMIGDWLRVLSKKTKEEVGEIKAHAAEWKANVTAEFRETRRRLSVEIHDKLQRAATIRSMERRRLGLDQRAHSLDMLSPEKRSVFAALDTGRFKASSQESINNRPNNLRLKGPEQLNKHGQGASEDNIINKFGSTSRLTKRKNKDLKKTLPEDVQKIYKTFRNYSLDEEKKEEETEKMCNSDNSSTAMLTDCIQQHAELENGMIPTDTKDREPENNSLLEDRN
UniProt Q15833: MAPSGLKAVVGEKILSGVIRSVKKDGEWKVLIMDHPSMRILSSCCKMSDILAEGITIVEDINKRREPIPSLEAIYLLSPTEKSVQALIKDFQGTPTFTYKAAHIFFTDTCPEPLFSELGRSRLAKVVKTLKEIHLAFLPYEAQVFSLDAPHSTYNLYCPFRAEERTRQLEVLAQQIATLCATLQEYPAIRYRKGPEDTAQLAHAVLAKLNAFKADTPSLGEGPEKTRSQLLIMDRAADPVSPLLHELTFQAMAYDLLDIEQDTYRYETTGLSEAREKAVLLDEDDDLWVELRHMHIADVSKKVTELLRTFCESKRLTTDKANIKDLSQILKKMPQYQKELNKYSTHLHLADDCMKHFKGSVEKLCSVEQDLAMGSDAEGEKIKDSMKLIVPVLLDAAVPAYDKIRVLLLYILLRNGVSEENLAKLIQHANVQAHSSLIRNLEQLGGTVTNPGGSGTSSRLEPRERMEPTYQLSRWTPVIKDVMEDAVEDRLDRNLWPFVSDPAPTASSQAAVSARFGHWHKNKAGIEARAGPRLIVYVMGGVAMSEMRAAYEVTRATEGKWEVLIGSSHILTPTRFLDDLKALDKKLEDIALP

[2] = target: T2, DUOXA1 (Homo sapiens) (UniProt Q1HG43); settings: 5' phosphate; Domain array: 20 mM Tris-HCl pH 7.4, 200 mM KCl, 0.2 mM EDTA, 0.05% NP40, 2 ug/ul heparin, overnight 4 C. ORF array: PBS pH 7.0 with RNase inhibitor, 100 ng RNA, 1 h.; recombinant protein; protein details: N-terminal GST-6xHis; label: internal DY647 at G18; letters put together from the description
T2 sequence (looked up, limits assumed): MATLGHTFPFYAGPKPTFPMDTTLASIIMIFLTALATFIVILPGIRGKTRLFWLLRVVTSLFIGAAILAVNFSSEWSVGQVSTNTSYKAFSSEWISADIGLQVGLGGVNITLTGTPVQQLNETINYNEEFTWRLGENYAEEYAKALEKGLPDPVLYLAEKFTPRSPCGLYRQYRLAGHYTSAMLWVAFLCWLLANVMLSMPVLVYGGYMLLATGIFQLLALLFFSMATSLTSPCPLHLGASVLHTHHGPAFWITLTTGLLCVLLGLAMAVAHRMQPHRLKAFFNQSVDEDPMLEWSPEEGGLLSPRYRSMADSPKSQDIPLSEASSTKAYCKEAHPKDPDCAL

[3] = target: HTATIP (Homo sapiens) (UniProt Q92993); settings: 5' phosphate; Domain array: 20 mM Tris-HCl pH 7.4, 200 mM KCl, 0.2 mM EDTA, 0.05% NP40, 2 ug/ul heparin, overnight 4 C. ORF array: PBS pH 7.0 with RNase inhibitor, 100 ng RNA, 1 h.; recombinant protein; protein details: N-terminal GST-6xHis; label: internal DY647 at G18; letters put together from the description
[4] = target: L1TD1 (Homo sapiens) (UniProt Q5T7N2); settings: 5' phosphate; Domain array: 20 mM Tris-HCl pH 7.4, 200 mM KCl, 0.2 mM EDTA, 0.05% NP40, 2 ug/ul heparin, overnight 4 C. ORF array: PBS pH 7.0 with RNase inhibitor, 100 ng RNA, 1 h.; recombinant protein; protein details: N-terminal GST-6xHis; label: internal DY647 at G18; letters put together from the description
[5] = target: SPANXC (Homo sapiens) (UniProt Q9NY87); settings: 5' phosphate; Domain array: 20 mM Tris-HCl pH 7.4, 200 mM KCl, 0.2 mM EDTA, 0.05% NP40, 2 ug/ul heparin, overnight 4 C. ORF array: PBS pH 7.0 with RNase inhibitor, 100 ng RNA, 1 h.; recombinant protein; protein details: N-terminal GST-6xHis; label: internal DY647 at G18; letters put together from the description
[6] = target: T3, TMEM109 (Homo sapiens) (UniProt Q9BVC6); settings: 5' phosphate; Domain array: 20 mM Tris-HCl pH 7.4, 200 mM KCl, 0.2 mM EDTA, 0.05% NP40, 2 ug/ul heparin, overnight 4 C. ORF array: PBS pH 7.0 with RNase inhibitor, 100 ng RNA, 1 h.; recombinant protein; protein details: N-terminal GST-6xHis; label: internal DY647 at G18; letters put together from the description
T3 sequence (looked up, limits assumed): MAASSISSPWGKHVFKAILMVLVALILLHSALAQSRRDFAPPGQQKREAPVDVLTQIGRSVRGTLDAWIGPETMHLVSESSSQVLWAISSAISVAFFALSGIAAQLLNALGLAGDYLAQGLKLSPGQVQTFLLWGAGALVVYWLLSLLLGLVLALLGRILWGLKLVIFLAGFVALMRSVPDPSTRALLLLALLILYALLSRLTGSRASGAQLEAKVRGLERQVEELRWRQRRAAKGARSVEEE

[7] = target: SPHK1 (Homo sapiens) (UniProt Q9NYA1); settings: 5' phosphate; Domain array: 20 mM Tris-HCl pH 7.4, 200 mM KCl, 0.2 mM EDTA, 0.05% NP40, 2 ug/ul heparin, overnight 4 C. ORF array: PBS pH 7.0 with RNase inhibitor, 100 ng RNA, 1 h.; recombinant protein; protein details: N-terminal GST-6xHis; label: internal DY647 at G18; letters put together from the description
[8] = target: T4, UNC45A (Homo sapiens) (UniProt Q9H3U1); settings: 5' phosphate; Domain array: 20 mM Tris-HCl pH 7.4, 200 mM KCl, 0.2 mM EDTA, 0.05% NP40, 2 ug/ul heparin, overnight 4 C. ORF array: PBS pH 7.0 with RNase inhibitor, 100 ng RNA, 1 h.; recombinant protein; protein details: N-terminal GST-6xHis; label: internal DY647 at G18; letters put together from the description
T4 sequence (looked up, limits assumed): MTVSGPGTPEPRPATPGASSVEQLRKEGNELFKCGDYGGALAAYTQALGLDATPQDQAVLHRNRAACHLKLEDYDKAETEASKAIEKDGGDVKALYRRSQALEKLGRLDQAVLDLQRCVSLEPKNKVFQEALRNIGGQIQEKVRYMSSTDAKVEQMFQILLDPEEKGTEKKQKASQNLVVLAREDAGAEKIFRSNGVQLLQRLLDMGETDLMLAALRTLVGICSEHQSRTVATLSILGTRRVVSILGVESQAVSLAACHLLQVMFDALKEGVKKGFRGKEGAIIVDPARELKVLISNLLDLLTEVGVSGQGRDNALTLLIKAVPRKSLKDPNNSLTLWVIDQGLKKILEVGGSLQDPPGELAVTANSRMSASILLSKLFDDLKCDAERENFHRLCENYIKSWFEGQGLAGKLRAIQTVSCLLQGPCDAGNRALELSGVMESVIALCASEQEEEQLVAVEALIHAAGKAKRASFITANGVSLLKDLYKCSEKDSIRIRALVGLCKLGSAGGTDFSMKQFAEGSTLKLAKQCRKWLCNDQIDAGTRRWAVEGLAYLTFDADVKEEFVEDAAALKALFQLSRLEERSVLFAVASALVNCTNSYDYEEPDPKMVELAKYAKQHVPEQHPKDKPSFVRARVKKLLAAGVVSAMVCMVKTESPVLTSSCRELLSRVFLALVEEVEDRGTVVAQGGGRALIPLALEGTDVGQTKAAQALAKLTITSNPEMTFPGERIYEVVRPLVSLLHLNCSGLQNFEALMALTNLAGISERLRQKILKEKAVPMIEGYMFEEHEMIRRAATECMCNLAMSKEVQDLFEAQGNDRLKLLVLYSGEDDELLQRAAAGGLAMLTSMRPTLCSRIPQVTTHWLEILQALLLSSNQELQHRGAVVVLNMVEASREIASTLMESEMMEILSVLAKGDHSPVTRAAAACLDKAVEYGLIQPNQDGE

[9] = target: UXT (Homo sapiens) (UniProt Q9UBK9); settings: 5' phosphate; Domain array: 20 mM Tris-HCl pH 7.4, 200 mM KCl, 0.2 mM EDTA, 0.05% NP40, 2 ug/ul heparin, overnight 4 C. ORF array: PBS pH 7.0 with RNase inhibitor, 100 ng RNA, 1 h.; recombinant protein; protein details: N-terminal GST-6xHis; label: internal DY647 at G18; letters put together from the description
[10] = target: ZCD1 (Homo sapiens) (UniProt Q9NZ45); settings: 5' phosphate; Domain array: 20 mM Tris-HCl pH 7.4, 200 mM KCl, 0.2 mM EDTA, 0.05% NP40, 2 ug/ul heparin, overnight 4 C. ORF array: PBS pH 7.0 with RNase inhibitor, 100 ng RNA, 1 h.; recombinant protein; protein details: N-terminal GST-6xHis; label: internal DY647 at G18; letters put together from the description
[11] = target: KCNK10 (Homo sapiens) (UniProt P57789); settings: 5' phosphate; amino-C6 U at position 18; Domain array: 20 mM Tris-HCl pH 7.4, 200 mM KCl, 0.2 mM EDTA, 0.05% NP40, 2 ug/ul heparin, overnight 4 C. ORF array: PBS pH 7.0 with RNase inhibitor, 100 ng RNA, 1 h.; recombinant protein; protein details: N-terminal GST-6xHis; label: internal Cy5 or DY647
[12] = target: STXBP2 (Homo sapiens) (UniProt Q15833); settings: 5' phosphate; amino-C6 U at position 18; Domain array: 20 mM Tris-HCl pH 7.4, 200 mM KCl, 0.2 mM EDTA, 0.05% NP40, 2 ug/ul heparin, overnight 4 C. ORF array: PBS pH 7.0 with RNase inhibitor, 100 ng RNA, 1 h.; recombinant protein; protein details: N-terminal GST-6xHis; label: internal Cy5 or DY647

Measured: binding result

CAGUGCAAUGAUGAAAGGGCAU [miR-130b (internal labeling)]
binds: [1] | [2] | [3] | [4] | [5] | [6]

UAGCUUAUCAGACUGAUGUUGA [miR-21 (internal labeling)]
binds: [7] | [8] | [9] | [10]

UGAGGUAGUAGGUUGUGUGGUU [let-7b (internal labeling)]
binds: [11] | [12]

Source: publication PMC11574364
